# This is one part of the list.
# B1: FimA (Actinomyces oris) (protein)
# chain: MHHHHHHSSGVDLGTENLYFQSNAETPNYGNIKTDATGSLVIHKHLTGGGKDIGTPTGTAQNADDKGPAVEGVVFTAYPITDINLKDPAGWDTISNLSRTGVPDSACANPAAPTLGAHQFGTPKVSPATTKEGLATITEMPVQAYLVCETTTPGDIVQKAKPFVVTIPHPNTAAGADGQWIYDVNVYPKNEAIDVDKTIQAQKLNGYGVGSLIKFPVESTAPTLDAKSFYKYFQLKDTLDERLSEVTATDVSLEGTPLQPTDYKVETKQQTVTVTFTAEGLKKIKAAPGKKVSAVFQGKVTKAGNGAITNRAQVISDTLYAEQPPTPETPPTDPENPPTSDEVISRWGDLSIKKVDTHQQGQTKAGLQGAQFQLYKAKNAYANTCSNEKEGAPIAINGQTTLTTDAQGAIDIKGLFISDSIDGADRDNQVNAMERCYVLVETKAPAGYVLPAGNGAATPVKVKAGEETTDNVTVENTKQSVPGLPLTG
# Tests used:
# Experiment in all cases: glycan array binding signal (z-score within array); higher = stronger binding
# Details in all cases: glycan notation: IUPAC condensed, linker removed
# Fuc(a1-2)Gal = target: Fuc(a1-2)Gal
# Procedure, shortened: (§1)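 The binding signal is a Z-score computed within each array. Data were drawn from 3228 arrays in the Consortium for Functional Glycomics database, restricted to those with a known protein sequence. Scores were averaged over arrays of the same protein sequence at different concentrations or buffers, and over linkers, and negative values can be taken as non-binding.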
# Fuc(a1-2)Gal(b1-3)GalNAc = target: Fuc(a1-2)Gal(b1-3)GalNAc
# Procedure, shortened: as §1
# [1] = target: Fuc(a1-2)Gal(b1-3)GalNAc(a1-3)[Fuc(a1-2)]Gal(b1-4)Glc
# Procedure, shortened: as §1
# [2] = target: Fuc(a1-2)Gal(b1-3)GalNAc(a1-3)[Fuc(a1-2)]Gal(b1-4)GlcNAc
# Procedure, shortened: as §1
# [3] = target: Fuc(a1-2)Gal(b1-3)GalNAc(b1-3)Gal
# Procedure, shortened: as §1
# [4] = target: Fuc(a1-2)Gal(b1-3)GalNAc(b1-3)Gal(a1-4)Gal(b1-4)Glc
# Procedure, shortened: as §1
# [5] = target: Fuc(a1-2)Gal(b1-3)GalNAc(b1-4)[Neu5Ac(a2-3)]Gal(b1-4)Glc
# Procedure, shortened: as §1
# Fuc(a1-2)Gal(b1-3)GlcNAc = target: Fuc(a1-2)Gal(b1-3)GlcNAc
# Procedure, shortened: as §1
# [6] = target: Fuc(a1-2)Gal(b1-3)GlcNAc(b1-2)Man(a1-3)[Fuc(a1-2)Gal(b1-3)GlcNAc(b1-2)Man(a1-6)]Man(b1-4)GlcNAc(b1-4)GlcNAc
# Procedure, shortened: as §1
# [7] = target: Fuc(a1-2)Gal(b1-3)GlcNAc(b1-2)Man(a1-3)[Fuc(a1-2)Gal(b1-3)GlcNAc(b1-2)Man(a1-6)]Man(b1-4)GlcNAc(b1-4)[Fuc(a1-6)]GlcNAc
# Procedure, shortened: as §1
# [8] = target: Fuc(a1-2)Gal(b1-3)GlcNAc(b1-3)Gal(b1-4)Glc
# Procedure, shortened: as §1
# [9] = target: Fuc(a1-2)Gal(b1-3)GlcNAc(b1-3)GalNAc
# Procedure, shortened: as §1
# [10] = target: Fuc(a1-2)Gal(b1-3)GlcNAc(b1-3)[Fuc(a1-2)Gal(b1-3)GlcNAc(b1-6)]GalNAc
# Procedure, shortened: as §1
# [11] = target: Fuc(a1-2)Gal(b1-3)GlcNAc(b1-3)[Gal(b1-4)GlcNAc(b1-6)]Gal(b1-4)Glc
# Procedure, shortened: as §1
# [12] = target: Fuc(a1-2)Gal(b1-3)GlcNAc(b1-3)[Neu5Ac(a2-6)Gal(b1-4)GlcNAc(b1-6)]Gal(b1-4)Glc
# Procedure, shortened: as §1
# [13] = target: Fuc(a1-2)Gal(b1-3)GlcNAc6S
# Procedure, shortened: as §1
# [14] = target: Fuc(a1-2)Gal(b1-3)[Fuc(a1-4)]GlcNAc
# Procedure, shortened: as §1
# [15] = target: Fuc(a1-2)Gal(b1-3)[Fuc(a1-4)]GlcNAc(b1-2)Man(a1-3)[Fuc(a1-2)Gal(b1-3)[Fuc(a1-4)]GlcNAc(b1-2)Man(a1-3)]Man(b1-4)GlcNAc(b1-4)GlcNAc
# Procedure, shortened: as §1
# [16] = target: Fuc(a1-2)Gal(b1-3)[Fuc(a1-4)]GlcNAc(b1-2)Man(a1-3)[Fuc(a1-2)Gal(b1-3)[Fuc(a1-4)]GlcNAc(b1-2)Man(a1-6)]Man(b1-4)GlcNAc(b1-4)[Fuc(a1-6)]GlcNAc(b1-4)[Fuc(a1-6)]GlcNAc
# Procedure, shortened: as §1
# [17] = target: Fuc(a1-2)Gal(b1-3)[Fuc(a1-4)]GlcNAc(b1-3)[Fuc(a1-3)[Gal(b1-4)]GlcNAc(b1-6)]Gal(b1-4)Glc
# Procedure, shortened: as §1
# [18] = target: Fuc(a1-2)Gal(b1-3)[Fuc(a1-4)]GlcNAc(b1-3)[Gal(b1-4)GlcNAc(b1-6)]Gal(b1-4)Glc
# Procedure, shortened: as §1
# Fuc(a1-2)Gal(b1-4)Glc = target: Fuc(a1-2)Gal(b1-4)Glc
# Procedure, shortened: as §1
# Fuc(a1-2)Gal(b1-4)Glc6S = target: Fuc(a1-2)Gal(b1-4)Glc6S
# Procedure, shortened: as §1
# Fuc(a1-2)Gal(b1-4)GlcNAc = target: Fuc(a1-2)Gal(b1-4)GlcNAc
# Procedure, shortened: as §1
# [19] = target: Fuc(a1-2)Gal(b1-4)GlcNAc(b1-2)Man
# Procedure, shortened: as §1
# [20] = target: Fuc(a1-2)Gal(b1-4)GlcNAc(b1-2)Man(a1-3)[Fuc(a1-2)Gal(b1-4)GlcNAc(b1-2)Man(a1-6)]Man(b1-4)GlcNAc(b1-4)GlcNAc
# Procedure, shortened: as §1
# [21] = target: Fuc(a1-2)Gal(b1-4)GlcNAc(b1-2)Man(a1-3)[Fuc(a1-2)Gal(b1-4)GlcNAc(b1-2)Man(a1-6)]Man(b1-4)GlcNAc(b1-4)[Fuc(a1-6)]GlcNAc
# Procedure, shortened: as §1
# [22] = target: Fuc(a1-2)Gal(b1-4)GlcNAc(b1-2)[Fuc(a1-2)Gal(b1-4)GlcNAc(b1-4)]Man(a1-3)[Fuc(a1-2)Gal(b1-4)GlcNAc(b1-2)Man(a1-6)]Man(b1-4)GlcNAc(b1-4)GlcNAc
# Procedure, shortened: as §1
# [23] = target: Fuc(a1-2)Gal(b1-4)GlcNAc(b1-3)Gal(b1-4)GlcNAc
# Procedure, shortened: as §1
# [24] = target: Fuc(a1-2)Gal(b1-4)GlcNAc(b1-3)Gal(b1-4)GlcNAc(b1-2)Man(a1-3)[Fuc(a1-2)Gal(b1-4)GlcNAc(b1-3)Gal(b1-4)GlcNAc(b1-2)Man(a1-6)]Man(b1-4)GlcNAc(b1-4)GlcNAc
# Procedure, shortened: as §1
binder,measurement,setting,value
B1,glycan array binding signal (z-score),Fuc(a1-2)Gal,-0.721
same,glycan array binding signal (z-score),Fuc(a1-2)Gal(b1-3)GalNAc,-0.446
same,glycan array binding signal (z-score),[1],-0.743
same,glycan array binding signal (z-score),[2],-0.48
same,glycan array binding signal (z-score),[3],11.8
same,glycan array binding signal (z-score),[4],-0.435
same,glycan array binding signal (z-score),[5],0.297
same,glycan array binding signal (z-score),Fuc(a1-2)Gal(b1-3)GlcNAc,0.251
same,glycan array binding signal (z-score),[6],-0.109
same,glycan array binding signal (z-score),[7],-0.644
same,glycan array binding signal (z-score),[8],-0.221
same,glycan array binding signal (z-score),[9],-0.927
same,glycan array binding signal (z-score),[10],-0.577
same,glycan array binding signal (z-score),[11],0.524
same,glycan array binding signal (z-score),[12],-0.347
same,glycan array binding signal (z-score),[13],0.156
same,glycan array binding signal (z-score),[14],-0.566
same,glycan array binding signal (z-score),[15],0.211
same,glycan array binding signal (z-score),[16],-0.324
same,glycan array binding signal (z-score),[17],0.008
same,glycan array binding signal (z-score),[18],-0.483
same,glycan array binding signal (z-score),Fuc(a1-2)Gal(b1-4)Glc,-0.719
same,glycan array binding signal (z-score),Fuc(a1-2)Gal(b1-4)Glc6S,0.325
same,glycan array binding signal (z-score),Fuc(a1-2)Gal(b1-4)GlcNAc,-0.305
same,glycan array binding signal (z-score),[19],0.416
same,glycan array binding signal (z-score),[20],-0.105
same,glycan array binding signal (z-score),[21],-0.587
same,glycan array binding signal (z-score),[22],-0.236
same,glycan array binding signal (z-score),[23],-1.06
same,glycan array binding signal (z-score),[24],-0.394

# In a second layout: results already given.
binder	measurement	setting	value
B1	glycan array binding signal (z-score)	[13]	0.156
same	glycan array binding signal (z-score)	[14]	-0.566

# — the supplement of paper PMC8728848
